# Among all 580,000 compounds or so, about 6,100 (1.1%) were called active. Inconclusive results, whose numbers are uncertain, are shown with a selection of clear calls. The call rests on the fitted dose curve; in most records, active means well fitted inhibition curve with a large enough effect; inconclusive means small, poorly fitted or top-dose-only effect, or another doubt; inactive means no such curve, though single readings can be large or run the other way. Potencies beside an inconclusive call are fits to weak or partial responses and may not hold up.
# Amino acid sequences for entries named in this document (tags omitted). A change or cut given only in a name is not applied to a line headed by its entry.
# UniProt P18054: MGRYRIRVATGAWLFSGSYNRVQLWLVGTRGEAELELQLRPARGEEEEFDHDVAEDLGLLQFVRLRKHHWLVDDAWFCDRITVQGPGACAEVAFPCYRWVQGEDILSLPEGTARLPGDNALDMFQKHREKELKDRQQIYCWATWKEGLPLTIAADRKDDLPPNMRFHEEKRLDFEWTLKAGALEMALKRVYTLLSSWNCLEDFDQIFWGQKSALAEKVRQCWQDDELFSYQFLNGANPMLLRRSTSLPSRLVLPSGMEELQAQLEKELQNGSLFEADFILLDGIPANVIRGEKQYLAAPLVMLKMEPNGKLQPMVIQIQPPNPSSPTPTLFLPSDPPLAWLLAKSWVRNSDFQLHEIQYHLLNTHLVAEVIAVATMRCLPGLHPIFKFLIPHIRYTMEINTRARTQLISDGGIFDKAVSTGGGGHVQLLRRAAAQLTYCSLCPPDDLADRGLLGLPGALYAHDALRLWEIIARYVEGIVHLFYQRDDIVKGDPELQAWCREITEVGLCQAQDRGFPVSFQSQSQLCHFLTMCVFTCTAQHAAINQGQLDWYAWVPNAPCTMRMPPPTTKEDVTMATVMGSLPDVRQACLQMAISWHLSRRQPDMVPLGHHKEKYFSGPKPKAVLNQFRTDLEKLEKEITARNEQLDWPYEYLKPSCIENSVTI
# Target: Polyunsaturated fatty acid lipoxygenase ALOX12 (Homo sapiens) (UniProt P18054)
# Assay: Primary qHTS assay for inhibitors of human arachidonate 12S-lipoxygenase (ALOX12): Round 2
# Settings: purified 12hLO, xylenol orange hydroperoxide absorbance; series mostly up to 108 µM
# In short: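 Hydroperoxide product was detected by ferrous iron/xylenol orange as the 573 to 405 nm absorbance ratio. Arachidonic acid at 40 uM (final) was turned over for 30 min at room temperature by 150 nM human 12hLO, pH 7.0 Hepes buffer, after 15 min compound preincubation.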
# Potency means the concentration at half of the fitted maximal effect.
row,Structure (SMILES),Potency
1,CC(C)(C)C(=N)N,"inconclusive: 112 µM [inhibitor, single point]"
2,CC(=O)OCCCN1C(=O)c2ccc(Br)cc2C1=O,inactive
3,COc1cccc2c1Oc1c(c(=O)n(-c3ccccc3)n1CC(=O)Nc1ccc(F)c(Cl)c1)C2,"inconclusive: 89.1 µM [inhibitor, partial curve, poor fit]"
4,O=C(/C=C/c1ccco1)NC(=S)Nc1ccccc1N1CCCC1,"inconclusive: 44.7 µM [inhibitor, partial curve, poor fit]"
5,COC(=O)c1ccc(Oc2nc(Nc3ccccc3)nc(N(C)C)n2)cc1,inactive
6,COc1ccc2c(CNCCc3ccco3)c(C(=O)O)n(Cc3ccc(C)cc3)c2c1,"inconclusive: 50.1 µM [inhibitor, partial curve, poor fit]"
7,COC[C@H]1NC(=O)CC[C@H]1C(=O)Nc1ccc2c(c1)OCCO2,inactive
8,COc1ccc(CC(=O)OCC(=O)Nc2ncc(Cl)c(C)c2Cl)cc1,active: 11.2 µM
9,Cc1cc(C)nc(SCC(=O)c2ccc(O)c(O)c2)n1,active: 8.91 µM
10,Cc1ccc(-n2ncc3c(NCCCN(C)C)ncnc32)cc1Cl,"inconclusive: 63.1 µM [inhibitor, partial curve, poor fit]"
11,O=c1oc2ccccc2c2c1ccc1ccccc12,"inconclusive: 14.1 µM [inhibitor, partial curve, poor fit]"
12,O=[N+]([O-])c1ccc(S(=O)(=O)N2CCn3cccc3C2c2ccc(Br)cc2)cc1 (stereo not drawn),"inconclusive: 200 µM [inhibitor, partial curve, poor fit]"
13,COc1ccc(C(CNC(=O)c2oc3cc(Br)ccc3c2C)N2CCCCC2)cc1 (stereo not drawn),"inconclusive: 56.2 µM [inhibitor, partial curve, poor fit]"
14,Cc1ccc2[nH]c(=O)c(CN(CCCO)C(C)c3nnnn3Cc3ccco3)cc2c1 (stereo not drawn),inactive
15,COCC1CN(S(=O)(=O)c2ccc(OC)c(Cl)c2)CC12CCNCC2 (stereo not drawn),inactive
16,CCOc1ccc(C2NC(=O)c3sc(=S)n(-c4ccccc4)c3N2)cc1 (stereo not drawn),"inconclusive: 50.1 µM [inhibitor, partial curve, poor fit]"
17,CN(C)C(CNS(=O)(=O)c1ccc(Cl)cc1F)c1ccco1 (stereo not drawn),inactive
18,O=C1Nc2ccc(S(=O)(=O)N3CCCC3C(=O)O)c3cccc1c23 (stereo not drawn),"inconclusive: 50.1 µM [inhibitor, partial curve, poor fit]"
19,COCCNC(=O)c1cc2cc(S(=O)(=O)N3CCCCC3)ccc2n1C,inactive
20,CC(=O)Nc1ccc(-c2csc(NC(=O)CN3C(=O)NC4(CCCC4)C3=O)n2)cc1,"inconclusive: 39.8 µM [inhibitor, partial curve, poor fit]"
21,O=C(COc1ccccc1)N1CCN(C(=O)c2nnn3c2COC(c2ccc(Cl)cc2)C3)CC1 (stereo not drawn),inactive
22,COc1ccc(/C=C2\Sc3ccc(C(=O)N4CCN(Cc5ccccc5)CC4)cc3N(C)C2=O)cc1OC,inactive
23,NS(=O)(=O)c1ccc(CCNCC(O)COCc2ccc(Cl)cc2)cc1 (stereo not drawn),"inconclusive: 89.1 µM [inhibitor, single point]"

row,Structure (SMILES),Potency
1,COc1cc(OC)c(OC)cc1CNC(=O)c1cc(Br)ccc1O,inactive
2,CCc1cccc2c(C(=O)O)cc(-c3ccnn3CC)nc12,inactive
3,CN(C)c1ccc(NC(=O)CC2C=CCC2)cc1 (stereo not drawn),"inconclusive: 35.5 µM [inhibitor, partial curve, poor fit]"
4,CCn1nnc(NC(=O)c2cccc(-c3cc4ccccc4oc3=O)c2)n1,"inconclusive: 22.4 µM [inhibitor, full curve, poor fit]"
5,CC(C)(C)c1cc2nc(NCCOc3ccccc3)ccn2n1,inactive
6,CC(=O)Nc1cccc(NC(=O)C(=O)N2CCN(C(=O)c3cc4ccccc4[nH]3)CC2)c1,inactive
7,CC(=O)NC[C@H]1OC[C@@H](NC2CCC2)[C@@H]1O,"inconclusive: 12.6 µM [inhibitor, full curve, poor fit]"
8,COc1ccc(-c2ccc3[nH]c4c(c3c2)CCN2C(=O)[C@@H]([C@H](C)O)[C@@H](N(C)C(=O)Nc3cc(Cl)cc(Cl)c3)C[C@@H]42)cc1,"inconclusive: 39.8 µM [inhibitor, partial curve, poor fit]"
9,Cc1ccc(S(=O)(=O)N(CC(=O)Nc2cccnc2)c2cc(Cl)ccc2C)cc1,"inconclusive: 35.5 µM [inhibitor, partial curve]"
10,CC(=O)Oc1cccc2cc(-c3nc(-c4ccc(F)cc4)no3)c(=O)oc12,"inconclusive: 158 µM [inhibitor, partial curve, poor fit]"
11,CCOC(=O)C1=C(C)N(C)C(=O)N(C)C1c1cccc(Br)c1 (stereo not drawn),inactive
12,CCCC1NC(=O)c2cc3ccccc3cc2-n2c1nc1cc(F)ccc1c2=O (stereo not drawn),"inconclusive: 44.7 µM [inhibitor, partial curve, poor fit]"
13,ClCc1nc2ccccc2c2ccccc12,"inconclusive: 50.1 µM [inhibitor, partial curve, poor fit]"
14,CC(C)C[C@H]1CN([C@@H](Cc2ccc(O)cc2)CN2CCC[C@@H]2CN2C(=O)C(=O)NC[C@@H]2Cc2ccccc2)C(=O)C(=O)N1CC1CCCCC1,"inconclusive: 126 µM [inhibitor, single point]"
15,C/C(=N\Nc1ccccc1)c1c(O)cc(C)oc1=O,"inconclusive: 5.62 µM [inhibitor, full curve, poor fit]"
16,Cc1ccc(C)c(CN2CCn3c(nn(CCCOc4ccc(F)cc4)c3=O)C2=O)c1,inactive
17,O=C(CCc1nnc(C2CCCCC2)o1)N1CCN(Cc2ccccc2)CC1,"inconclusive: 44.7 µM [inhibitor, partial curve, poor fit]"
18,COc1cc(C(=O)N/C(=C\c2cn(C)c3ccccc23)C(=O)NCCCN2CCOCC2)cc(OC)c1OC,inactive
19,CC1=CC2=NC(=O)/C(=C\c3cccn3CCOc3ccccc3)C(=N)N2O1,inactive
20,CC1c2cc3c(cc2CCN1C(=O)c1ccc(Br)cc1)OCCCO3 (stereo not drawn),inactive
21,O=C(C1=Cc2sc3c(c2CS1)CCCC3)N1CCCCC1,"inconclusive: 25.1 µM [inhibitor, partial curve, poor fit]"
22,Cc1cccc(NC(=O)COc2cccc3c2CCN(C)C3=O)c1C,inactive
23,COc1ccc(C(=O)Nc2nc3c(s2)Cc2c(Br)ccc(OC)c2-3)cc1OC,"inconclusive: 44.7 µM [inhibitor, partial curve, poor fit]"

# Exported tab-delimited: entries from further up
row	Structure (SMILES)	Potency
11	CCOC(=O)C1=C(C)N(C)C(=O)N(C)C1c1cccc(Br)c1 (stereo not drawn)	inactive
12	CCCC1NC(=O)c2cc3ccccc3cc2-n2c1nc1cc(F)ccc1c2=O (stereo not drawn)	inconclusive: 44.7 µM [inhibitor, partial curve, poor fit]
13	ClCc1nc2ccccc2c2ccccc12	inconclusive: 50.1 µM [inhibitor, partial curve, poor fit]
14	CC(C)C[C@H]1CN([C@@H](Cc2ccc(O)cc2)CN2CCC[C@@H]2CN2C(=O)C(=O)NC[C@@H]2Cc2ccccc2)C(=O)C(=O)N1CC1CCCCC1	inconclusive: 126 µM [inhibitor, single point]
15	C/C(=N\Nc1ccccc1)c1c(O)cc(C)oc1=O	inconclusive: 5.62 µM [inhibitor, full curve, poor fit]
16	Cc1ccc(C)c(CN2CCn3c(nn(CCCOc4ccc(F)cc4)c3=O)C2=O)c1	inactive
17	O=C(CCc1nnc(C2CCCCC2)o1)N1CCN(Cc2ccccc2)CC1	inconclusive: 44.7 µM [inhibitor, partial curve, poor fit]
18	COc1cc(C(=O)N/C(=C\c2cn(C)c3ccccc23)C(=O)NCCCN2CCOCC2)cc(OC)c1OC	inactive
19	CC1=CC2=NC(=O)/C(=C\c3cccn3CCOc3ccccc3)C(=N)N2O1	inactive
20	CC1c2cc3c(cc2CCN1C(=O)c1ccc(Br)cc1)OCCCO3 (stereo not drawn)	inactive
21	O=C(C1=Cc2sc3c(c2CS1)CCCC3)N1CCCCC1	inconclusive: 25.1 µM [inhibitor, partial curve, poor fit]
22	Cc1cccc(NC(=O)COc2cccc3c2CCN(C)C3=O)c1C	inactive

# Later entries:

row,Structure (SMILES),Potency
1,N#Cc1ccc(CN2CCCC3(Cc4ccccc4CNC3=O)C2)cc1 (stereo not drawn),"inconclusive: 44.7 µM [inhibitor, partial curve, poor fit]"
2,CCN(CC)c1ccc(/C=N/N2C(=O)c3ccccc3C2=O)c(O)c1,inactive
3,CCCCNC(=O)C(NC(=O)c1cccnc1)C(=O)c1ccccc1 (stereo not drawn),"inconclusive: 35.5 µM [inhibitor, single point]"
4,CCOc1ccccc1NC(=S)NC(=O)CCCOc1ccc(Cl)cc1Cl,"inconclusive: 35.5 µM [inhibitor, full curve, poor fit]"
5,CC(Nc1ncccc1[N+](=O)[O-])c1cccc(Cl)c1 (stereo not drawn),"inconclusive: 112 µM [inhibitor, single point]"
6,COC(=O)C1=C(C)N(CCc2ccc(OC)c(OC)c2)C(=O)/C1=C\N(C)C,inactive
7,COCCN1C(=O)[C@H]2CN(Cc3ccc(F)c(Br)c3)C[C@H]2C1=O,inactive
8,CC(=O)NC12CC3CC(CC(CO[N+](=O)[O-])(C3)C1)C2,inactive
9,CCc1ccc(NC(=O)CSc2nnc(CC)c(CC)n2)cc1,"inconclusive: 100 µM [inhibitor, partial curve, poor fit]"
10,COc1ccc(OCC(=O)Nc2c(C)ccc3nsnc23)cc1,"inconclusive: 2.51 µM [inhibitor, full curve, poor fit]"
11,CN(Cc1nc2ccsc2c(=O)[nH]1)C(=O)c1cnn(-c2ccccc2)c1,"inconclusive: 70.8 µM [inhibitor, single point]"
12,CCc1[nH]nc2c1C1(C(=O)Nc3ccc(Cl)cc31)C(C#N)=C(N)O2 (stereo not drawn),"inconclusive: 7.08 µM [inhibitor, full curve]"
13,CCCC(C#N)NC(=O)Cc1c[nH]c2ccccc12 (stereo not drawn),"inconclusive: 100 µM [inhibitor, partial curve, poor fit]"
14,Cc1cccc(-c2nc(C#N)c(N3CCN(Cc4ccccc4)CC3)o2)c1,"inconclusive: 31.6 µM [inhibitor, partial curve, poor fit]"
15,CNC(=O)[C@@H](C1CC1)N1CCC[C@H]1C(=O)NCC(C)C,"inconclusive: 31.6 µM [inhibitor, full curve]"
16,CC1=C[C@@H](CNS(=O)(=O)c2ccccc2)[C@H](C(C)C)C[C@H]1CC(=O)O,"inconclusive: 56.2 µM [inhibitor, full curve]"
17,CC(NC(=O)c1ccc2nccn2c1)c1ccc(F)cc1 (stereo not drawn),inactive
18,COc1ccc(CNC(=O)CCCn2ccc3cc(S(=O)(=O)N4CCCC4)ccc32)cc1,inactive
19,CS(=O)(=O)c1ccc(C(=O)Nc2c(Cl)cc(NC(=O)c3cnccn3)cc2Cl)cc1,inactive
20,COc1ccc(C(C)(O)c2nc(-c3ccccc3OC)cs2)cc1 (stereo not drawn),"inconclusive: 112 µM [inhibitor, single point]"
21,Cc1ccc(N2CCN(C(=O)C3CCCN(c4cnc5nccnc5c4)C3)CC2)cc1 (stereo not drawn),"inconclusive: 35.5 µM [inhibitor, partial curve]"
22,Cn1c2ccccc2c2cc(/C=N/NC(=O)c3cc(O)cc(O)c3)ccc21,"inconclusive: 44.7 µM [inhibitor, partial curve]"
